Source: PMC7819943, “Rice protein-binding microarrays: a tool to detect cis-acting elements near promoter regions in rice”
This is one part of the list.

The chains behind the UniProt entries cited, without tags or fusion partners.
UniProt Q0JBA9, entry or part of it: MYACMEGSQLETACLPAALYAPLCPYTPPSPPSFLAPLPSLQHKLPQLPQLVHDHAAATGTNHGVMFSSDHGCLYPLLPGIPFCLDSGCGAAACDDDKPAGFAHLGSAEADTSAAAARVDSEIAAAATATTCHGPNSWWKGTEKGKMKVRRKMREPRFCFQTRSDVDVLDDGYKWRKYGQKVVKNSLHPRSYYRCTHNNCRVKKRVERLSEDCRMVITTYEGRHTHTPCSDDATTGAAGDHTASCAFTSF

Target: OsWRKY34 (Oryza sativa, UniProt Q0JBA9 1-250)
Assay: protein-binding microarray (RPBM); PBS, 2% BSA, 51.3 ng/ul salmon testes DNA, 50 uM zinc acetate, 200 nM TF, 25 C, 1 h; high values mean tight binding
Details: protein: recombinant; tags: N-terminal polyhistidine and DsRed monomer fusion (pET32a); label: CyDye5-dUTP incorporated in the synthesized complementary strand; 3' TTTTT single-stranded linker to array surface; dsDNA, one strand shown
Method in brief: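 The binding signal is fluorescence intensity per array feature (arbitrary units). Readings came from an Axon 4000B scanner after a washed, 2% BSA-blocked, double-stranded custom Agilent array had been incubated for 1 h at 25 °C with 200 nM protein and 50 µM zinc acetate. The protein was a Ni–NTA-purified transcription factor fused N-terminally to polyhistidine and DsRed, expressed in E. coli BL21-CodonPlus.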

Question: How did the binding signal turn out when “GATCAAGCGGAAGTGGGTTGACTTGTCATTGGGTTTAGGTCGGAGTCACCTAGTGCAG” was run?
Answer: 8070 fluorescence intensity (a.u.)

Question: “CTCTTGATTTCAAGCGTTGATGCTGCACTTTACACACAAACGGAGTCACCTAGTGCAG” was tested. Which binding signal did it give?
Answer: 8210 fluorescence intensity (a.u.)

Question: For “ATCCTTCTCACCTATATGTTTATTACATAGCATCCTAATTCGGAGTCACCTAGTGCAG”, which binding signal is on record?
Answer: 8090 fluorescence intensity (a.u.)

Question: Which binding signal does the source give for “TTTTTAGGGTGTGGGTATTAGTTGGAAAATACAATAAATGCGGAGTCACCTAGTGCAG” here?
Answer: 9530 fluorescence intensity (a.u.)

Question: How did the binding signal turn out when “TGAATGACAAACGGGTCCCACGCATATTTTTTTATTTCTACGGAGTCACCTAGTGCAG” was run?
Answer: 9090 fluorescence intensity (a.u.)

Question: With “CATTTGTAGTTTTATGTTTATTCTTTCGTCATCGAGTATCCGGAGTCACCTAGTGCAG” as the sequence, how does the binding signal read?
Answer: 8640 fluorescence intensity (a.u.)

Question: For “CACCACCCCGGCCGCTTCCGCCACTTCACTCCACTCCACACGGAGTCACCTAGTGCAG”, which binding signal is on record?
Answer: 13200 fluorescence intensity (a.u.)

Question: With “AGTATGTTCTCTTTTCTCATGGCGTTTGCAACGTTGTCATCGGAGTCACCTAGTGCAG” as the sequence, how does the binding signal read?
Answer: 14800 fluorescence intensity (a.u.)

Question: For “CGGGCTCTGGTTTTACCGAATAAATGCTCTGGGCCTAATACGGAGTCACCTAGTGCAG”, which binding signal is on record?
Answer: 8020 fluorescence intensity (a.u.)

Question: With “CGGAGAGAGTACCATACTTCCATCCCTGTATCTACAGTAACGGAGTCACCTAGTGCAG” as the sequence, how does the binding signal read?
Answer: 8600 fluorescence intensity (a.u.)

Question: How did the binding signal turn out when “ACCCACGTATAATTTCATCATATCTAGACATATGTACTATCGGAGTCACCTAGTGCAG” was run?
Answer: 9010 fluorescence intensity (a.u.)

Question: “AATCACAACTTTGCTTTCATCCACGTCGACAACATATACACGGAGTCACCTAGTGCAG” was tested. Which binding signal did it give?
Answer: 8420 fluorescence intensity (a.u.)

Question: With “ATCATTGCCATAAAGCATTATTGTCATTCTTTGATGTTGACGGAGTCACCTAGTGCAG” as the sequence, how does the binding signal read?
Answer: 8340 fluorescence intensity (a.u.)

Question: For “GTCGCCCGCCCGTGTCCACCACCCACTGCCGGTCATCCACCGGAGTCACCTAGTGCAG”, which binding signal is on record?
Answer: 8330 fluorescence intensity (a.u.)

Question: How did the binding signal turn out when “CTGCGTTTCTATTGGTATTTGACTCTTTGTCTCTTCGGGTCGGAGTCACCTAGTGCAG” was run?
Answer: 10300 fluorescence intensity (a.u.)

Question: How did the binding signal turn out when “GATGGGCCCGTTTCTGTCTCCAATTCCAGCCCGTCTCTTACGGAGTCACCTAGTGCAG” was run?
Answer: 8470 fluorescence intensity (a.u.)

Question: How did the binding signal turn out when “CCCTTCATGTGCAAGCCACTGCCTCCACCCTCACACTGGACGGAGTCACCTAGTGCAG” was run?
Answer: 9220 fluorescence intensity (a.u.)

Question: Which binding signal does the source give for “GATTGTTTGGTAGCACACTGCCTTGGTTGGGTTGATGATCCGGAGTCACCTAGTGCAG” here?
Answer: 11100 fluorescence intensity (a.u.)

Question: How did the binding signal turn out when “GACTATAAACATCATAGGGTGATAGGGGTCGTGGTAGGTGCGGAGTCACCTAGTGCAG” was run?
Answer: 10300 fluorescence intensity (a.u.)

Question: Which binding signal does the source give for “ATCGCCATTCCACCCGCTGCCGCCTCCGCCGCCGCCGTAGCGGAGTCACCTAGTGCAG” here?
Answer: 11000 fluorescence intensity (a.u.)

Question: Which binding signal does the source give for “TTCAACCACACACATGTCCACACACAGCCCAATAAAACTCCGGAGTCACCTAGTGCAG” here?
Answer: 9480 fluorescence intensity (a.u.)

Question: With “CAGTTGCCGCTGATGCAATTCATCGCCCTCCTCTTGTTAGCGGAGTCACCTAGTGCAG” as the sequence, how does the binding signal read?
Answer: 8030 fluorescence intensity (a.u.)

Question: How did the binding signal turn out when “TATATATATATATATATATAGATTTATTGACATCTATATGCGGAGTCACCTAGTGCAG” was run?
Answer: 9230 fluorescence intensity (a.u.)

Question: With “TTCTCTCTGCCCGTGCCAATCTTCCTTTCCCACATCCTCCCGGAGTCACCTAGTGCAG” as the sequence, how does the binding signal read?
Answer: 10300 fluorescence intensity (a.u.)

Question: How did the binding signal turn out when “GCCCGCGCGAAATGACGCTACTACCCTCGTTGCTCTTATCCGGAGTCACCTAGTGCAG” was run?
Answer: 9540 fluorescence intensity (a.u.)

Question: Which binding signal does the source give for “TATTCACCTATGTTTTTGTTAGTCTATTTTATTTCCCTAGCGGAGTCACCTAGTGCAG” here?
Answer: 8120 fluorescence intensity (a.u.)

Question: Which binding signal does the source give for “GCTAGTACTACCTTCATATTTAAATACACGACTTTATTCTCGGAGTCACCTAGTGCAG” here?
Answer: 9250 fluorescence intensity (a.u.)

Question: “CTCCTGTGTTCATATGCCTCACCAAGCTGCGAGTTGCAGACGGAGTCACCTAGTGCAG” was tested. Which binding signal did it give?
Answer: 10500 fluorescence intensity (a.u.)

Question: With “AATTAATTTTATGTTATAGATGTTGCTAATTTTTTCTTTACGGAGTCACCTAGTGCAG” as the sequence, how does the binding signal read?
Answer: 8090 fluorescence intensity (a.u.)

Question: For “TTTTCTCTCCTGTTTTGGGAGGGTTTTCCACGTTAAATCTCGGAGTCACCTAGTGCAG”, which binding signal is on record?
Answer: 8230 fluorescence intensity (a.u.)

Question: With “CATCCGGATCCAAAGCCTCGTTTGACCGTGTCTTACCTACCGGAGTCACCTAGTGCAG” as the sequence, how does the binding signal read?
Answer: 9730 fluorescence intensity (a.u.)

Question: Which binding signal does the source give for “TTTTATGACTATTTTTATCCTTACATGTAAAGATGTACGTCGGAGTCACCTAGTGCAG” here?
Answer: 8260 fluorescence intensity (a.u.)

Question: With “ACCATCTCTTCGCAGATCCACCTGCTCCGCCGCCGCCGCCCGGAGTCACCTAGTGCAG” as the sequence, how does the binding signal read?
Answer: 9020 fluorescence intensity (a.u.)

Question: “ATATACTCCTACCGTTTTTAATACATGACACCGTTAACTTCGGAGTCACCTAGTGCAG” was tested. Which binding signal did it give?
Answer: 8800 fluorescence intensity (a.u.)

Question: Which binding signal does the source give for “GTTTTCTTGTACAGTAGTGTGTGCGCACTTATGTTGACTACGGAGTCACCTAGTGCAG” here?
Answer: 10700 fluorescence intensity (a.u.)

Question: For “TCATGGGCCAATGGCCATAATGAACGCGTTGACCTAAGTCCGGAGTCACCTAGTGCAG”, which binding signal is on record?
Answer: 9140 fluorescence intensity (a.u.)

Question: For “CAGCTTTTTCTTGTGTGTTGCGCTTTAGCCGGGCGATAGACGGAGTCACCTAGTGCAG”, which binding signal is on record?
Answer: 9850 fluorescence intensity (a.u.)

Question: For “GACTACCTACCACCCTTTCTTAGGACAGGTTAACTGGACACGGAGTCACCTAGTGCAG”, which binding signal is on record?
Answer: 8590 fluorescence intensity (a.u.)

Question: Which binding signal does the source give for “TTCAAATTTTCCCTTAGTTTTCATCTCCTTTGAAATTCCACGGAGTCACCTAGTGCAG” here?
Answer: 9010 fluorescence intensity (a.u.)

Question: How did the binding signal turn out when “TCGTTCCTTCCTGTTGTTTCCTTTTCTTTTCCTTTATTTTCGGAGTCACCTAGTGCAG” was run?
Answer: 8070 fluorescence intensity (a.u.)

Question: Which binding signal does the source give for “CAGCCGATGCACAGTTCGTTTTGGCAAGATTCAATTTCCTCGGAGTCACCTAGTGCAG” here?
Answer: 8430 fluorescence intensity (a.u.)

Question: With “CAGCATTATCTTCTCAGTCTTGTTCTCCCTTCACAGTTTCCGGAGTCACCTAGTGCAG” as the sequence, how does the binding signal read?
Answer: 8760 fluorescence intensity (a.u.)
